According to the supplement of paper PMC10849652:
The list shows a part of the results.

Sequences of proteins named here, by UniProt entry; tags and fusion partners are left off. A change or cut given only in a name is not applied to a line headed by its entry.
UniProt Q03393: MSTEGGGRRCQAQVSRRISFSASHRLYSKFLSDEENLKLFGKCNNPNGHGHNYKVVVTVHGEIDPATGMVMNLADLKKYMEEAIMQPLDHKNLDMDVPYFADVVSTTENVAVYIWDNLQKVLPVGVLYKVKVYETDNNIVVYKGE
UniProt Q86Y79: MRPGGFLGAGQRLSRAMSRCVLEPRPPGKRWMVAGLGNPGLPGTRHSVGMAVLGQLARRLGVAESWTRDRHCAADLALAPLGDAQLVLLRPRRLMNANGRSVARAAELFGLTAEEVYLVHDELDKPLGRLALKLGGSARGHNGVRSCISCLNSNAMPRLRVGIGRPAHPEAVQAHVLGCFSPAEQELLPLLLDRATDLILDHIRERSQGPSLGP
UniProt P15151: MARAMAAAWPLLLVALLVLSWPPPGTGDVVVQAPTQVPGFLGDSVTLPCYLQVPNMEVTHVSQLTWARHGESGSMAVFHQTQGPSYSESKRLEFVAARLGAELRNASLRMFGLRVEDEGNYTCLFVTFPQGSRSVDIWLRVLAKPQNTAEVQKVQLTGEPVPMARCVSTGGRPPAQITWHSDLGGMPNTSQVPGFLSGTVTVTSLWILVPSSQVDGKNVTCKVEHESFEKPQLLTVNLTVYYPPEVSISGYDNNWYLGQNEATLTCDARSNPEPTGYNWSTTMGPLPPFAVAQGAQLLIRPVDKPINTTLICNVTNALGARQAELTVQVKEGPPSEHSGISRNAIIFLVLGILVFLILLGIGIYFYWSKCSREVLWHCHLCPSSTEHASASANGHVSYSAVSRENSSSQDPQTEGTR
UniProt P28074: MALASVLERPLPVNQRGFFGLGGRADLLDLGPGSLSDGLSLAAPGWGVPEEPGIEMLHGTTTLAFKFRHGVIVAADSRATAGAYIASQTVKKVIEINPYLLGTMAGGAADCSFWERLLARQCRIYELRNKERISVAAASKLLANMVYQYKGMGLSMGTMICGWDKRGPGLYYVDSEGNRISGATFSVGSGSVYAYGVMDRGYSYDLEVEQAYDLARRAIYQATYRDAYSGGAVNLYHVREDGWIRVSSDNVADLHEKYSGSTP
UniProt Q7Z5L2: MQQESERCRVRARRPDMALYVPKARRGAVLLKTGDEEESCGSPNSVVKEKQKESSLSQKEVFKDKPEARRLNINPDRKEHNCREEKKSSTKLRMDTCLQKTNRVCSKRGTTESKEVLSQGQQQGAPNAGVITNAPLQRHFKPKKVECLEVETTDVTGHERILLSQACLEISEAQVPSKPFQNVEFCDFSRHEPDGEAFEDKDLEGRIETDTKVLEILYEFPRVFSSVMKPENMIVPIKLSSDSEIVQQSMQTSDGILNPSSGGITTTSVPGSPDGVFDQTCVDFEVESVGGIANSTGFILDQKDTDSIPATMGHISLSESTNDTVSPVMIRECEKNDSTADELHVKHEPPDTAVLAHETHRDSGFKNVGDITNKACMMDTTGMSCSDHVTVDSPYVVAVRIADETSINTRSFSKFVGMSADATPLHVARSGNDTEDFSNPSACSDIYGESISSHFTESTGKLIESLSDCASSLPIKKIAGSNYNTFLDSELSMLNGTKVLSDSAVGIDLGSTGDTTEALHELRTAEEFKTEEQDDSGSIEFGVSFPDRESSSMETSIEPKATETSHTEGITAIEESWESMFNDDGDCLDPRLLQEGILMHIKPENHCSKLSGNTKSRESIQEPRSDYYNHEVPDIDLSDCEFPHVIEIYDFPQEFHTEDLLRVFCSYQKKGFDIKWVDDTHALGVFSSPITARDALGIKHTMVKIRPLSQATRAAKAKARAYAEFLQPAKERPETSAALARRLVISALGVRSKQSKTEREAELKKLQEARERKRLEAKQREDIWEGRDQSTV
UniProt P43378: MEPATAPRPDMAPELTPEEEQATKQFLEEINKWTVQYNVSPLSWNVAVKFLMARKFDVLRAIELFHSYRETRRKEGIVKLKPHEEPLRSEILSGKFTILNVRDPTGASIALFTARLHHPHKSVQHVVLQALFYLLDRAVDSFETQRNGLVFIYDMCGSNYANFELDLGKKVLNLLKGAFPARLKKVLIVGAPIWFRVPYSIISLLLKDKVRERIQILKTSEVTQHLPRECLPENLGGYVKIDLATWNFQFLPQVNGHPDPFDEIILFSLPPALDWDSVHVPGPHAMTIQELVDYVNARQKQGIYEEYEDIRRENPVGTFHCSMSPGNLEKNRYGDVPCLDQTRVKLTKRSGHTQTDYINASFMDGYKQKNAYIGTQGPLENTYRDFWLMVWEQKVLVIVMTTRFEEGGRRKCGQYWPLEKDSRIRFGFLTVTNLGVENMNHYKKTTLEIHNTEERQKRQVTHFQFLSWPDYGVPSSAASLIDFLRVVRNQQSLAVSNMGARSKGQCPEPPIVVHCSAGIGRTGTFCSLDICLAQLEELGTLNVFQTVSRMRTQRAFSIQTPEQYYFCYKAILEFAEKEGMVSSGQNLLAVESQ
UniProt P40306: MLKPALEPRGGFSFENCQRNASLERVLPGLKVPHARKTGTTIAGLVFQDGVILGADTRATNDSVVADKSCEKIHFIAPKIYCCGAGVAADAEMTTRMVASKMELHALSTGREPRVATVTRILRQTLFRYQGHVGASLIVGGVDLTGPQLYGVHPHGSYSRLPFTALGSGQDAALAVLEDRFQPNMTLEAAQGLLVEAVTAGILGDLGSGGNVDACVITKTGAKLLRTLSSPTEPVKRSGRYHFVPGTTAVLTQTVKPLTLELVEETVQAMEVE
UniProt Q99952: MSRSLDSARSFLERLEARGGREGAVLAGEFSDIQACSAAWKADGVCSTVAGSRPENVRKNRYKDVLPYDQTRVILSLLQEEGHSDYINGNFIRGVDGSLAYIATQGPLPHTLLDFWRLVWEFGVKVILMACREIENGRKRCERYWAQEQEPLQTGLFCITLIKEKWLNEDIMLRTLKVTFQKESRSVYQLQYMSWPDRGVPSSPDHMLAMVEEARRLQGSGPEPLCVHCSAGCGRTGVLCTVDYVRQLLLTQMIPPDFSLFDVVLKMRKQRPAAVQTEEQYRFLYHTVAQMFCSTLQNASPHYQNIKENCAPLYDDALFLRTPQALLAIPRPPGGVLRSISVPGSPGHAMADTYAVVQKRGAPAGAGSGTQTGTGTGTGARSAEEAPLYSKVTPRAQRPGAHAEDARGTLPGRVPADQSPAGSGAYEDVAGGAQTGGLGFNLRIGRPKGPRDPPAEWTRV
UniProt Q9ULZ3, whole entry, looked up: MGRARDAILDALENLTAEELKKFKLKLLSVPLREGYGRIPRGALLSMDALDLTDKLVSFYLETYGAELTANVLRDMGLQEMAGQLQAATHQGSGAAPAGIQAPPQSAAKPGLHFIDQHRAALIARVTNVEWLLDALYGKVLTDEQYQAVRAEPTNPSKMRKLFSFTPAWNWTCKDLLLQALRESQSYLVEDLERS
UniProt Q8WUY3: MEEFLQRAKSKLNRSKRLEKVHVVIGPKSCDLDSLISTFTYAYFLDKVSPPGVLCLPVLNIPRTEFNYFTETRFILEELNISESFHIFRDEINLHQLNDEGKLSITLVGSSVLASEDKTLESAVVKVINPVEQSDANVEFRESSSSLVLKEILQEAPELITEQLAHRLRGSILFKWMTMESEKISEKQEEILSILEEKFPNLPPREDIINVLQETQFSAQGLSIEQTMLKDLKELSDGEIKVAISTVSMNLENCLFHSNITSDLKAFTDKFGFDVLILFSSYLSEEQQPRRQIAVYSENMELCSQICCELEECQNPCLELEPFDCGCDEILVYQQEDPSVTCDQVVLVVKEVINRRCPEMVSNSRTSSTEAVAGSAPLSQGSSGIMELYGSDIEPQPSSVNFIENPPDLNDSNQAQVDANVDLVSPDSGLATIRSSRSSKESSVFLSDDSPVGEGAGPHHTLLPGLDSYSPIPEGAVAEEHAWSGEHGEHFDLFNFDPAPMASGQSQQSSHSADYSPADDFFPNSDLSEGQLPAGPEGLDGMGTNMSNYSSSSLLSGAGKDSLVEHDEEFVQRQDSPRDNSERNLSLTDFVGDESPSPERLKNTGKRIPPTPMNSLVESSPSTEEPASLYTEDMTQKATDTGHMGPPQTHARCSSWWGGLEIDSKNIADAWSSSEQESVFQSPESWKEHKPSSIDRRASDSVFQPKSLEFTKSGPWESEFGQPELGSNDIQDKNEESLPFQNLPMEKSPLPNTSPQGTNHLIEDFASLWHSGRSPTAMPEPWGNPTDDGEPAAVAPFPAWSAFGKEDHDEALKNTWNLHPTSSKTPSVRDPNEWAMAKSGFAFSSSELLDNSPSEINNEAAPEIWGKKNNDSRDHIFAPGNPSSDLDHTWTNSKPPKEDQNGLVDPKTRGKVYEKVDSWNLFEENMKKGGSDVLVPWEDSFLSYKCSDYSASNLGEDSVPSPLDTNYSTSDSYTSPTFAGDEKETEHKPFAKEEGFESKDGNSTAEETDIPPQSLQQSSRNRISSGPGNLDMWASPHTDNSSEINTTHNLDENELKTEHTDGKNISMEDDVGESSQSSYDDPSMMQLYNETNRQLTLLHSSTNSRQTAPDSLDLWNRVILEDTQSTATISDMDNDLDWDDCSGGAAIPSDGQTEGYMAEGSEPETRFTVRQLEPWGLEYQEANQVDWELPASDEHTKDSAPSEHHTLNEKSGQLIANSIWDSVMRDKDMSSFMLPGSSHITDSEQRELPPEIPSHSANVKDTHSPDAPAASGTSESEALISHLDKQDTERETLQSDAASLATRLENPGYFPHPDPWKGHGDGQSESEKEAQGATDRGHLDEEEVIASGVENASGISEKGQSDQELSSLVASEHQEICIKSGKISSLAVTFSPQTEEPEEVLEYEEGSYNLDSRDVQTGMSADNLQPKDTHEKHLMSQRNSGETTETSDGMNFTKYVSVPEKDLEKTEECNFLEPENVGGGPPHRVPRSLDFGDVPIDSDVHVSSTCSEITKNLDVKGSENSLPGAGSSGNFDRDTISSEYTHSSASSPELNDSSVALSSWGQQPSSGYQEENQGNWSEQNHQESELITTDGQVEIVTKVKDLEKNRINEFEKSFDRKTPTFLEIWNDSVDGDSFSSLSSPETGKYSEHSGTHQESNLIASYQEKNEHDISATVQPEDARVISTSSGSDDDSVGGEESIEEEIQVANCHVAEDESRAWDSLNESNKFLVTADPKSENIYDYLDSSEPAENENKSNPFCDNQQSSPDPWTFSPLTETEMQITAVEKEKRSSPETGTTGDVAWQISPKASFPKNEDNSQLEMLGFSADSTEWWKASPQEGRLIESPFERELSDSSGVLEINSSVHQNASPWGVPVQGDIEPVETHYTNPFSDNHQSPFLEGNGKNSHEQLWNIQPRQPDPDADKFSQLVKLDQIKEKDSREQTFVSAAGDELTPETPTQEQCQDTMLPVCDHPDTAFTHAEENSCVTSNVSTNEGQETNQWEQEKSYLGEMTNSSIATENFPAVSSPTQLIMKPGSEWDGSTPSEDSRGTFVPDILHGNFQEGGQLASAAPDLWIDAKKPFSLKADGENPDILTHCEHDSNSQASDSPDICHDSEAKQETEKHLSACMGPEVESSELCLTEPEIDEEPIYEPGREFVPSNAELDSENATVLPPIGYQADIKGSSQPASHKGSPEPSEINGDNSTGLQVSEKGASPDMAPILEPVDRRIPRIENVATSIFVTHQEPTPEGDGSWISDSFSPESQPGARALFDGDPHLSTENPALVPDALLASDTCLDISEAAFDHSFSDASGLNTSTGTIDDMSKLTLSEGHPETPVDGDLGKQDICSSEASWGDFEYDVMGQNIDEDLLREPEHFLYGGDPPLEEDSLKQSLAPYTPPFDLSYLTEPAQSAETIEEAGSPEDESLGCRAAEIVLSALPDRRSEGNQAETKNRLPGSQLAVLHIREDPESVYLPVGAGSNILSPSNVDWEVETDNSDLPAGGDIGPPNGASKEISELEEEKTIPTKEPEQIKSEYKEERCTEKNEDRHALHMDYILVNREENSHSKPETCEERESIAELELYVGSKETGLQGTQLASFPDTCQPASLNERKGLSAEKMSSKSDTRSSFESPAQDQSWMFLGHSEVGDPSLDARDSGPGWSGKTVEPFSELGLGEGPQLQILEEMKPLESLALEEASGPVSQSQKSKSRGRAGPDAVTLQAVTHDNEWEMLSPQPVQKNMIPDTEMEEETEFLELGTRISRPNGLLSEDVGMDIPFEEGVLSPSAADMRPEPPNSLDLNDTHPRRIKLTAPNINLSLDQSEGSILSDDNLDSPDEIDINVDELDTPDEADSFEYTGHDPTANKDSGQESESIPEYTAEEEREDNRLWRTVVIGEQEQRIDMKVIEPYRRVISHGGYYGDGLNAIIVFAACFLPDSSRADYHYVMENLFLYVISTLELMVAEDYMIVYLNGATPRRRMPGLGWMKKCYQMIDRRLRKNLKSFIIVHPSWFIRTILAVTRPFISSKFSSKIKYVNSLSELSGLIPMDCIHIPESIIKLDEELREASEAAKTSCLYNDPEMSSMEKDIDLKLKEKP

Legend:
Assay in all cases: log2 fold change, soluble protein after heating vs DMSO (PISA); higher = thermal stabilisation; K562 cells, 10 uM, 30 min; active = over 0.2 and 3.5 SD of the protein, either way, in both replicates (recomputed)
[1] = compound: COC1=CC=C(C=C1)CN2C=CC3=C2C=C(C=C3)C(=O)NO
Summary of the method: (§1)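 K562 cells at 2×10^6 cells/mL were treated with 10 μM compound for 30 min. Aliquots were heated for 3 min across 48°C-58°C, pooled, and extracted in PBS with 0.5% NP-40 at 4°C; soluble protein was the supernatant after 21,000xg for 90 min. Soluble protein was quantified by TMTpro 16plex LC-MS/MS with channel sums equalised, and reported as log2 fold change in thermal stability against DMSO controls, with values from duplicates.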

[2] = compound: CO[C@H]1C[C@@H]2CC[C@@H](C)[C@@](O)(O2)C(=O)C(=O)N2CCCC[C@H]2C(=O)O[C@H]([C@H](C)C[C@@H]2CC[C@H](n3cnnn3)[C@H](OC)C2)CC(=O)[C@H](C)/C=C(\C)[C@@H](O)[C@@H](OC)C(=O)[C@H](C)C[C@H](C)/C=C/C=C/C=C/1C [zotarolimus]
Summary of the method: as §1

[3] = compound: COc1cc(C(=O)O)ccc1NC(=O)[C@@H]1N[C@@H](CC(C)(C)C)[C@](C#N)(c2ccc(Cl)cc2F)[C@H]1c1cccc(Cl)c1F [idasanutlin]
Summary of the method: as §1

[4] = compound: COc1cc(Nc2ncc3c(n2)-c2ccc(Cl)cc2C(c2c(F)cccc2OC)=NC3)ccc1C(=O)O [alisertib]
Summary of the method: as §1

[5] = compound: COc1cc2nc(-c3cc(F)ccc3O)nc(N[C@@H]3CNC[C@H]3C(C)(C)O)c2cc1OC
Summary of the method: as §1

[6] = compound: COc1cc2ncnc(Nc3ccc(F)c(Cl)c3)c2cc1OCCCN1CCOCC1 [gefitinib]
Summary of the method: as §1

[7] = compound: COc1cccc2cc(-c3nc([C@H]4CC[C@H](C(=O)O)CC4)n4ncnc(N)c34)[nH]c12
Summary of the method: as §1

[8] = compound: CS(=O)(=O)CCNCc1ccc(-c2ccc3ncnc(Nc4ccc(OCc5cccc(F)c5)c(Cl)c4)c3c2)o1 [lapatinib]
Summary of the method: as §1

[9] = compound: CS(=O)(=O)N1CCN(Cc2cc3nc(-c4cccc5[nH]ncc45)nc(N4CCOCC4)c3s2)CC1 [pictilisib]
Summary of the method: as §1

[10] = compound: C[C@@H](Oc1cc(-c2cnn(C3CCNCC3)c2)cnc1N)c1c(Cl)ccc(F)c1Cl [crizotinib]
Summary of the method: as §1

[11] = compound: C[C@@H]1COCCN1C2=NC(=NC(=C2)C3(CC3)S(=O)(=O)C)C4=C5C=CNC5=CC=C4
Summary of the method: as §1

[12] = compound: C[C@H](C1=CC=C(C=C1)C(=O)NC2=C3C=CNC3=NC=C2)N
Summary of the method: as §1

[13] = compound: C[C@H](Nc1ncnc2nc[nH]c12)c1cc2cccc(Cl)c2c(=O)n1-c1ccccc1 [duvelisib]
Summary of the method: as §1

[14] = compound: Cc1cc(Nc2cc(CN3CCOCC3)c3nc(C)c(Cc4ccc(Cl)cc4F)n3n2)n[nH]1 [gandotinib]
Summary of the method: as §1

[15] = compound: Cc1cc(Nc2cc(N3CCN(C)CC3)nc(Sc3ccc(NC(=O)C4CC4)cc3)n2)n[nH]1 [tozasertib]
Summary of the method: as §1

[16] = compound: Cc1cc(SCc2sc(-c3ccc(C(F)(F)F)cc3)nc2C)ccc1OCC(=O)O
Summary of the method: as §1

[17] = compound: Cc1ccc(-n2nc(C(C)(C)C)cc2NC(=O)Nc2ccc(OCCN3CCOCC3)c3ccccc23)cc1 [doramapimod]
Summary of the method: as §1

[18] = compound: CON(C)C(=O)N1N=C(c2cc(F)ccc2F)S[C@@]1(CCCN)c1ccccc1 [filanesib]
Summary of the method: as §1

[19] = compound: CS(=O)(=O)c1ccc(-c2cnc(N)c(C(=O)Nc3ccccc3)n2)cc1
Summary of the method: as §1

[20] = compound: Cc1ccc(C(=O)N(CCCN)[C@@H](c2nc3cc(Cl)ccc3c(=O)n2Cc2ccccc2)C(C)C)cc1 [ispinesib]
Summary of the method: as §1

Measured: log2 fold change

PTS (UniProt Q03393)
inactive: [1] -0.193 | [2] 0.003 | [3] -0.018 | [4] 0.019 | [5] -0.037 | [6] 0.01 | [7] 0.021 | [8] -0.044 | [9] 0.109 | [10] -0.112 | [11] 0.14 | [12] -0.04 | [13] 0.193 | [14] 0.003 | [15] 0 | [16] 0.011 | [17] 0.016

PURG (UniProt Q9UJV8)
inactive: [18] 0.215 | [6] -0.043 | [19] -0.195 | [11] -0.277

PTPRJ (UniProt Q12913)
inactive: [18] 0.048 | [19] -0.057 | [11] 0.085

PTPN7 isoform 3 (UniProt P35236)
inactive: [18] 0.17 | [2] -0.065 | [5] 0.006 | [8] 0.271 | [19] 0.235 | [12] 0.231 | [20] -0.014

PUSL1 (UniProt Q8N0Z8)
inactive: [18] 0.107 | [2] -0.047 | [4] 0.244 | [7] -0.082 | [9] 0.015 | [19] -0.064 | [11] -0.24 | [12] 0.473 | [14] 0.158 | [15] -0.111 | [20] -0.14

PSMB8 (UniProt P28062)
inactive: [1] -0.062 | [2] 0.03 | [3] 0.013 | [6] 0.159 | [9] -0.046 | [10] 0.067 | [12] 0.04 | [14] 0.126 | [17] 0.007

PTRH1 (UniProt Q86Y79)
inactive: [1] 0.003 | [2] -0.038 | [3] 0.072 | [9] -0.01 | [10] -0.014 | [12] 0.229 | [13] 0.181 | [14] 0.106 | [16] -0.005 | [17] -0.042 | [20] -0.177

PVR (UniProt P15151)
inactive: [18] 0.015 | [2] 0.004 | [3] -0.038 | [4] -0.066 | [5] 0.011 | [7] 0.081 | [8] 0.1 | [9] 0.035 | [19] 0.054 | [11] 0.024 | [12] -0.15 | [13] 0.039 | [14] -0.078 | [15] -0.041 | [16] -0.042

PTBP2 isoform 3 (UniProt Q9UKA9)
inactive: [1] 0.111 | [18] 0.106 | [5] 0.179 | [8] -0.052 | [9] -0.031 | [19] 0.036 | [10] -0.296 | [14] 0.033 | [17] 0.01

PTPA (UniProt A6PVN8)
inactive: [18] 0.019 | [2] -0.143 | [3] 0.09 | [4] -0.383 | [5] -0.085 | [6] 0.021 | [7] 0.297 | [8] 0.043 | [9] 0.035 | [19] -0.116 | [11] 0.083 | [12] 0.1 | [14] -0.048 | [16] -0.203 | [20] -0.04

PSD2 (UniProt Q9BQI7)
inactive: [18] -0.136 | [3] 0.014 | [4] 0.12 | [6] -0.004 | [7] 0.045 | [19] -0.077 | [11] -0.031 | [20] -0.307

PSMB5 isoform 3 (UniProt P28074)
inactive: [18] 0.127 | [3] 0.022 | [5] 0.185 | [8] -0.522 | [19] 0.121 | [11] 0.034 | [13] 0.3 | [15] -0.296 | [16] -0.062 | [20] -0.24

PSMC1 (UniProt G3V4X1)
inactive: [2] -0.045 | [5] -0.106 | [6] -0.036 | [8] -0.105 | [9] -0.071 | [12] 0.099 | [14] 0.066

PYCR1 (UniProt J3QKT4)
inactive: [3] -0.107 | [9] 0.167 | [11] -0.098 | [14] 0.169 | [15] -0.223

R3HCC1L (UniProt Q7Z5L2)
inactive: [18] 0.04 | [2] -0.022 | [3] -0.316 | [5] -0.019 | [6] -0.034 | [8] 0.039 | [9] 0.196 | [19] 0.096 | [12] 0.086 | [14] -0.097 | [15] -0.187

PUM2 isoform 3 (UniProt Q8TB72)
inactive: [2] 0.173 | [12] -0.005 | [13] -0.022 | [16] 0.076

PUM1 (UniProt Q14671)
inactive: [1] -0.029 | [2] -0.076 | [3] 0.037 | [9] 0.032 | [10] -0.079 | [12] -0.362 | [14] 0.207 | [16] 0.203 | [17] 0.041

PSMC3 (UniProt E9PLG2)
inactive: [1] -0.612 | [18] 0.17 | [4] 0.071 | [7] 0.079 | [19] 0.206 | [10] 0.168 | [11] 0.101 | [16] -0.101 | [17] -0.058

Nine successive records out of the list so far:
PUSL1 (UniProt Q8N0Z8)
inactive: [18] 0.107 | [2] -0.047 | [4] 0.244 | [7] -0.082 | [9] 0.015 | [19] -0.064 | [11] -0.24 | [12] 0.473 | [14] 0.158 | [15] -0.111 | [20] -0.14

PSMB8 (UniProt P28062)
inactive: [1] -0.062 | [2] 0.03 | [3] 0.013 | [6] 0.159 | [9] -0.046 | [10] 0.067 | [12] 0.04 | [14] 0.126 | [17] 0.007

PTRH1 (UniProt Q86Y79)
inactive: [1] 0.003 | [2] -0.038 | [3] 0.072 | [9] -0.01 | [10] -0.014 | [12] 0.229 | [13] 0.181 | [14] 0.106 | [16] -0.005 | [17] -0.042 | [20] -0.177

PVR (UniProt P15151)
inactive: [18] 0.015 | [2] 0.004 | [3] -0.038 | [4] -0.066 | [5] 0.011 | [7] 0.081 | [8] 0.1 | [9] 0.035 | [19] 0.054 | [11] 0.024 | [12] -0.15 | [13] 0.039 | [14] -0.078 | [15] -0.041 | [16] -0.042

PTBP2 isoform 3 (UniProt Q9UKA9)
inactive: [1] 0.111 | [18] 0.106 | [5] 0.179 | [8] -0.052 | [9] -0.031 | [19] 0.036 | [10] -0.296 | [14] 0.033 | [17] 0.01

PTPA (UniProt A6PVN8)
inactive: [18] 0.019 | [2] -0.143 | [3] 0.09 | [4] -0.383 | [5] -0.085 | [6] 0.021 | [7] 0.297 | [8] 0.043 | [9] 0.035 | [19] -0.116 | [11] 0.083 | [12] 0.1 | [14] -0.048 | [16] -0.203 | [20] -0.04

PSD2 (UniProt Q9BQI7)
inactive: [18] -0.136 | [3] 0.014 | [4] 0.12 | [6] -0.004 | [7] 0.045 | [19] -0.077 | [11] -0.031 | [20] -0.307

PSMB5 isoform 3 (UniProt P28074)
inactive: [18] 0.127 | [3] 0.022 | [5] 0.185 | [8] -0.522 | [19] 0.121 | [11] 0.034 | [13] 0.3 | [15] -0.296 | [16] -0.062 | [20] -0.24

PSMC1 (UniProt G3V4X1)
inactive: [2] -0.045 | [5] -0.106 | [6] -0.036 | [8] -0.105 | [9] -0.071 | [12] 0.099 | [14] 0.066

The listing continues.

PSD3 (UniProt Q9NYI0)
inactive: [1] -0.003 | [2] 0.074 | [3] 0.015 | [4] -0.003 | [5] 0.141 | [6] 0.036 | [7] 0.069 | [8] -0.07 | [10] 0.071 | [12] -0.047 | [17] -0.02 | [20] -0.075

PSEN2 (UniProt P49810)
inactive: [18] 0.141 | [3] 0.037 | [4] -0.011 | [7] 0.193 | [9] -0.068 | [19] 0.105 | [13] 0.128 | [14] 0.014 | [16] -0.171 | [20] -0.556

PSMD8 (UniProt K7ERW6)
inactive: [1] -0.188 | [10] -0.021 | [17] 0.066

PTPN9 (UniProt P43378)
inactive: [4] -0.569 | [7] -0.16 | [9] -0.209 | [13] -0.107 | [14] 0.062 | [16] 0.058

PSIP1 (UniProt V9GYT7)
inactive: [1] 0.107 | [2] -0.101 | [4] -0.148 | [5] 0.045 | [6] -0.036 | [7] -0.192 | [8] -0.079 | [9] 0.111 | [10] -0.098 | [12] -0.038 | [13] 0.022 | [14] 0.18 | [15] 0.017 | [16] -0.022 | [17] 0.17 | [20] -0.008

PSMA3 (UniProt H0YJ03)
inactive: [1] 0.362 | [2] -0.004 | [3] 0.009 | [5] 0.203 | [8] 0.021 | [10] 0.081 | [12] 0.099 | [16] -0.07 | [17] 0.072 | [20] -0.213

PSMB10 (UniProt P40306)
inactive: [18] 0.024 | [3] -0.105 | [4] -0.174 | [5] 0.03 | [6] -0.118 | [7] -0.033 | [8] 0.079 | [19] 0.05

PUF60 isoform 2 (UniProt Q9UHX1)
inactive: [2] 0.18 | [3] -0.042 | [4] -0.203 | [5] -0.071 | [7] 0.027 | [8] 0.407 | [12] -0.591 | [16] 0.04 | [20] 0.173

PTEN isoform 2 (UniProt P60484)
inactive: [1] 0.081 | [5] -0.251 | [8] 0.094 | [9] -0.028 | [10] 0.077 | [14] 0.312 | [17] 0.001 | [20] 0.024

PSMD8 (UniProt K7EK21)
inactive: [2] -0.174 | [12] 0.485

PTGER3 isoform 2 (UniProt P43115)
inactive: [1] -0.039 | [3] 0.14 | [10] 0 | [17] 0.375 | [20] 0.168

PTPN18 (UniProt Q99952)
inactive: [1] -0.129 | [18] 0.161 | [4] -0.053 | [6] 0.042 | [7] 0.026 | [19] 0.099 | [10] -0.084 | [17] 0.098 | [20] 0.183

PSMC3IP (UniProt Q9P2W1)
inactive: [2] 0.071 | [3] 0.004 | [4] 0.182 | [5] 0.054 | [6] -0.127 | [7] -0.273 | [8] -0.001 | [9] -0.136 | [11] 0.122 | [12] -0.109 | [14] -0.035 | [15] 0.067

PYCARD isoform 2 (UniProt Q9ULZ3)
inactive: [1] -0.596 | [10] 0.198 | [17] 0.155 | [20] -0.11

PRUNE2 isoform 3 (UniProt Q8WUY3)
inactive: [1] 0.258 | [3] 0.067 | [4] -0.107 | [5] -0.124 | [6] 0.15 | [7] -0.003 | [8] 0.22 | [10] 0.034 | [11] -0.053 | [13] 0.088 | [16] 0.099 | [17] -0.12 | [20] 0.062
